# Primary screen of a compound library

The chains behind the UniProt entries cited, without tags or fusion partners. Residues count along the entry.
UniProt P9WNZ1, whole entry: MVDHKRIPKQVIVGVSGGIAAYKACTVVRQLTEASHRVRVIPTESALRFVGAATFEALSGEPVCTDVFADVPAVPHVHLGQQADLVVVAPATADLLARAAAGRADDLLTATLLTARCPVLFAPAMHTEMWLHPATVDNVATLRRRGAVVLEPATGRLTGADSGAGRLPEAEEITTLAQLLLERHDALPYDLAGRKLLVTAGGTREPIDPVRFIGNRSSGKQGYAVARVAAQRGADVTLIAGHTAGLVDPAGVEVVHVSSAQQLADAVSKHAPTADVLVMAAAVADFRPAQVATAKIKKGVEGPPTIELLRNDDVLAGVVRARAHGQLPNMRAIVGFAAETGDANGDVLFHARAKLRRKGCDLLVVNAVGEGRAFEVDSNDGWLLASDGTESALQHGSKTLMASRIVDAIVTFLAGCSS
UniProt P9WFT3, whole entry: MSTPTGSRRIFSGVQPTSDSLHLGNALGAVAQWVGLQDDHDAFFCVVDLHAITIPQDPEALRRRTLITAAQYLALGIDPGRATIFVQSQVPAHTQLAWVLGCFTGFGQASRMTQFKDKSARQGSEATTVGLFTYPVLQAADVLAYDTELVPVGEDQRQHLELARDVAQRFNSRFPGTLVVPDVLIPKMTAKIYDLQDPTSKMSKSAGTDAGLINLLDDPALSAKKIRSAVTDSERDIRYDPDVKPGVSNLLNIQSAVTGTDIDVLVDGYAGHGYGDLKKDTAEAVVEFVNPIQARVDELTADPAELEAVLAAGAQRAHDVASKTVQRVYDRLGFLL
UniProt A4I591, 1-473: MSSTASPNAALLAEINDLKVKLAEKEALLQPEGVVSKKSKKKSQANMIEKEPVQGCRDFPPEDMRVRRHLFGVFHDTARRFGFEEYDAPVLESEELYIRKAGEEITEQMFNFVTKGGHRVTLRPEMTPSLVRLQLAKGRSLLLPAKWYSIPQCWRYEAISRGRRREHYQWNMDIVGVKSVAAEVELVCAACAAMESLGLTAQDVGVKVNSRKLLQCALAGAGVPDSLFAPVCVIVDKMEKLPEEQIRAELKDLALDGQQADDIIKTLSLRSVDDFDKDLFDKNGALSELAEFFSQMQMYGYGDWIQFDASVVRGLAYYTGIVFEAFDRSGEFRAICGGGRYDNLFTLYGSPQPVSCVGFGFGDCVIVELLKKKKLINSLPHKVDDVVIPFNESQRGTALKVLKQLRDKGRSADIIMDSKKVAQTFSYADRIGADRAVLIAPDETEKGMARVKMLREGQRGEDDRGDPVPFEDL

The values are deposited in ChEMBL (CHEMBL3988442, “University of Dundee, Small-Polar-MMV Screening Library” (2021)).

CoaBC: 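Coenzyme A biosynthesis protein CoaBC, Mycobacterium tuberculosis (UniProt P9WNZ1). Enzyme assay of CoaBC with a phosphate dye (Biomol Green) read at 650 nm. Concentration: 30 µM. Direction is inferred from only a few compounds that gave an IC50; most scored high, so higher reads as stronger inhibition. Most strong results did not repeat in a second test. Of about 67,000 compounds tested this way, about 40 (0.06%) reached 50% or more in at least one test.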
Toxoplasma: 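Assay of Toxoplasma gondii numbers, read through their beta-galactosidase reporter with a colour substrate. Concentration: 10 µM. The record gives no direction; the compounds picked for IC50 retests had high values, so higher reads as fewer parasites. About 67,000 compounds were tested under these conditions; 0.38% (about 260) showed 50% or more at least once.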
Leishmania in macrophages: 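Cell assay of Leishmania donovani living inside macrophages; the read-out is not stated. Concentration: 30 µM. Higher reads as stronger inhibition (inferred: compounds with an IC50 in retests scored well above the rest). Size under these conditions: about 69,000 compounds, about 1,000 of them at 50% or above in at least one test.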
MtTrpRS: 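Tryptophan-tRNA ligase, Mycobacterium tuberculosis (UniProt P9WFT3). Enzyme assay of tryptophanyl-tRNA synthetase; the read-out is not stated. Concentration: 10 µM. Direction is not recorded; retested compounds ran higher, which suggests that high means inhibition. Size under these conditions: about 65,000 compounds, about 64 of them at 50% or above in at least one test.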
LiHisRS: 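Enzyme assay of histidyl-tRNA synthetase; the read-out is not stated. Target: Histidine-tRNA ligase, Leishmania infantum (UniProt A4I591). Concentration: 30 µM. Direction is inferred from retests: higher values go with stronger inhibition. The assay is labelled LdHisRS but filed under L. infantum. Size under these conditions: about 69,000 compounds, about 410 of them at 50% or above in at least one test.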

Each number is a percent effect as filed. The record does not define 0% and 100%; most values in the screen are far below 50% and negative numbers occur (in some assays of this library far below -100). Compounds were drawn at random from those tested, without regard to their results. A dash means the value is not listed here; it may have been measured.

Compound,CoaBC,Toxoplasma,Leishmania in macrophages,MtTrpRS,LiHisRS
COCCN1CCN(C(=O)C2CC=CC2)Cc2cccnc21,3.68,5.983,27.1,2.623,16.98
COc1cccc2c1OCC(CNC(=O)CNC(N)=O)C2 (stereo not given),14.54,-0.9038,-11.09,-0.5029,20.75
CCC(C)(NCC(=O)NC(C)C)c1nc(C)cs1 (stereo not given),0,-3.072,-3.939,-0.4397,9.836
CN1CCN(Cc2noc(-c3cc(-c4ccccc4F)n[nH]3)n2)CC1,4.472,6.058,-14.35,0.6606,11.11
Cc1nc(N2CCN(C(=O)C3CC3)CC2)c2c(n1)c(C)nn2C,11.98,0.4782,11.35,2.01,19.42
O=C(NCc1ccc(Br)cc1)C1(O)CCSCC1,-3.125,3.978,11.27,-5.47,8.333
O=S(=O)(NC[C@]12COC[C@H]1CN(c1ncc(F)cn1)C2)C1CC1,5.072,-,-,7.455,13.13
CN1CC(=O)N(c2ccccc2)CC12CCN(CCO)C2 (stereo not given),-1.911,-,-,-0.2513,9.735
O=C(N[C@@H]1CN(c2ncccn2)C[C@@H]2CCCO[C@@H]21)c1ccncc1,4.56,-,-,-0.9764,20
Cc1nc(Cn2c3c(ccc2=O)CC(NC(C)C)CC3)cs1.O=C(O)C(F)(F)F.O=C(O)C(F)(F)F (stereo not given),-,-10.21,33.25,-,-
Cc1ccc(CN(CCN(C)C)Cc2ccnn2C2CCCCO2)o1 (stereo not given),-30.8,-,-,-4.052,7.092
O=C(O)C(F)(F)F.[H][C@@]12CN(C(=O)c3ccoc3)C[C@]1([H])OCCN2C,-,-11.94,25.78,-,-
CCCOC(=O)NCCC1CN(c2cnn(C)c(=O)c2)CCO1 (stereo not given),7.744,5.082,24.52,2.452,15.96
CN(CCn1cnc(-c2ccccc2)c1-c1ncc[nH]1)S(C)(=O)=O,-2.685,9.246,-0.1441,-2.529,5.747
CC1CN(C)CCN1CC(=O)NCCOc1cccc(F)c1 (stereo not given),-1.37,1.407,27.33,2.612,14.68
Cc1ccc(N2CCC(C3CCN(CC(C)C)CC3)C2)nn1 (stereo not given),1.863,3.248,8.275,-3.184,9.167
O=C(O)C(F)(F)F.O=C(O)C(F)(F)F.O=C(O)C(F)(F)F.[H][C@@]12CCCO[C@]1([H])[C@H](Nc1ccccn1)CN(Cc1ccccn1)C2,-,1.754,0.4773,-,-
O=C1NCCN1CCNc1cc(-c2ccncc2)nc2ccnn12,15.05,-6.832,10.68,-4.392,16.87
Cc1ncsc1C(=O)N1CCN(CCC(C)C)CC1,0.6017,-19.56,-29.59,1.467,4.494
CCN(C)CC1CCN(C(=O)NCCC2Cc3ccccc3C2)C1 (stereo not given),-2.211,15.7,8.587,-4.854,2.381
CSC(C)(C)CNC(=O)NC1CCSCC1,4.911,-0.6608,11.41,-1.243,20.39
Cn1cnc(S(=O)(=O)NCCCN2CCCCCC2=O)c1Cl,0,-16.86,28.85,-6.088,14.29
CCc1nc(C2CCCN2CCCS(N)(=O)=O)no1 (stereo not given),-2.632,-6.26,4.478,0.2674,6.481
O=C(O)C(F)(F)F.[H][C@@]12C[C@@H](C)O[C@]1([H])CN(C(=O)c1cc(C)nn1CC)C2,-,-6.256,19.73,-,-
Cc1cnc(N2CCCC3(COCCN(c4ccc(C)nn4)C3)C2)nc1 (stereo not given),6.624,-2.091,20.6,1.001,7.447
CC(C)Cc1ncc2c(n1)CN(c1nccc(N(C)C)n1)C2,4.596,-9.581,17.96,-0.1447,35.83
COc1ccc(CNCc2c(C(C)C)nn(C)c2OC)cn1,9.759,4.093,16.57,1.193,21.43
O=C(CCCn1cnc2ccccc2c1=O)Nc1nc[nH]n1,0.7229,-13.46,-11.87,3.819,16.48
COCc1nc(N(C)C)ncc1C(=O)NC(C)C,2.557,-2.152,-40.59,0.201,3.883
Cc1ccsc1C(=O)NCc1ccnc(OCC(F)(F)F)c1,5.957,-31.22,33.78,-7.972,19.64
O=C(O)C(F)(F)F.O=C(O)C(F)(F)F.[H][C@@]12CN(Cc3nccs3)C[C@H](C(=O)NCCOC)[C@]1([H])CCO2,-,18.59,-5.541,-,-
Cc1ccc(N2CCC3(CCCN(C(=O)c4cccnc4)C3)C2)nn1 (stereo not given),-1.931,-,-,9.492,-1.961
O=C(O)C(F)(F)F.O=C1COC2(CCN(CC3CC3)CC2)CN1c1ccsc1,-,-3.426,8.141,-,-

The last 4 entries again:

Compound,CoaBC,Toxoplasma,Leishmania in macrophages,MtTrpRS,LiHisRS
Cc1ccsc1C(=O)NCc1ccnc(OCC(F)(F)F)c1,5.957,-31.22,33.78,-7.972,19.64
O=C(O)C(F)(F)F.O=C(O)C(F)(F)F.[H][C@@]12CN(Cc3nccs3)C[C@H](C(=O)NCCOC)[C@]1([H])CCO2,-,18.59,-5.541,-,-
Cc1ccc(N2CCC3(CCCN(C(=O)c4cccnc4)C3)C2)nn1 (stereo not given),-1.931,-,-,9.492,-1.961
O=C(O)C(F)(F)F.O=C1COC2(CCN(CC3CC3)CC2)CN1c1ccsc1,-,-3.426,8.141,-,-